The list shows a part of the results. Shown are side measurements of this screen, not its main read-out; they come without a call. The list favours compounds with an active or inconclusive main result. Words in brackets tell the shape of the fitted curve; partial curves, single points and poor fits give uncertain potencies.
Assay: qHTS Assay for Lipid Storage Modulators in Drosophila S3 Cells;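 as to cell number change: cells counted by Cell Tracker Red CMTPX staining in the red channel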
Details: BODIPY lipid droplet fluorescence, 18-24 h; for cell number change: measured here: cell count max response, cells fed with added oleic acid
In short: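 Drosophila S3 cells loaded with oleic acid (400 uM, as added) and compounds at several concentrations; lipid droplets imaged by 488-nm laser-scanning cytometry, 500–530 nm intensity and object ratio to cell channel. Percent activity normalized to 20 uM Triacsin C.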

[1] = measured here: lipid fluorescence (Fed channel) AC50, cells fed with added oleic acid
[2] = measured here: cell number channel AC50, cells fed with added oleic acid

SMILES: COc1cc(NC(=O)CSc2nc(C)cs2)cc(OC)c1
- AC50 [1]: 0.58 µM [falling, single point]

SMILES: Cc1cccc(C(C)C)c1NC(=O)c1c(-c2ccccc2)noc1C
- AC50 [1]: 6.51 µM [rising, single point]

SMILES: O=C(O)c1ccc(Cn2c(SCc3cc(=O)n4cc(Br)ccc4n3)nc3ccsc3c2=O)cc1
- AC50 [1]: 5.8 µM [rising, partial curve]

SMILES: COc1ccc(NCC(=O)N/N=C2\CCc3ccccc32)cc1
- cell number change: 82.8%
- AC50 [2]: 2.06 µM [rising, full curve]
- AC50 [1]: 2.91 µM [rising, full curve]

SMILES: CCN1C(=O)/C(=C\c2cn(-c3ccccc3)nc2-c2cccnc2)SC1=S
- AC50 [1]: 0.116 µM [rising, single point]

SMILES: CCOC(=O)C1=C(C)NC(=O)NC1c1cc(Br)c(O)c(OC)c1 (stereo unspecified)
- AC50 [1]: 0.0651 µM [falling, full curve, poor fit]

SMILES: COc1ccc(C)cc1N(CC(=O)NC1CCCC1)C(=O)CCC(=O)Nc1nc(C)cs1
- cell number change: 15%
- AC50 [1]: 25.9 µM [falling, single point]

SMILES: CCOc1ccc(N2C(=O)CC(NCCc3c[nH]c4ccccc34)C2=O)cc1 (stereo unspecified)
- cell number change: -41.7%

SMILES: COc1ccc(CNC(=O)CN(Cc2ccccc2Cl)C(=O)c2csnn2)cc1
- cell number change: -21.8%
- AC50 [1]: 0.058 µM [falling, partial curve, poor fit]

SMILES: CC1=C(C(=O)OC(C)C)C(C)C(C(=O)OC(C)C)=C(C)N1
- cell number change: -10.4%
- AC50 [1]: 2.31 µM [rising, partial curve]

SMILES: c1ccc(-c2ccc(CN3CCSCC3)cc2)cc1
- cell number change: -37.5%
- AC50 [2]: 29.1 µM [falling, single point]

SMILES: NS(=O)(=O)c1ccc(CCNC(=O)c2ccc(NC3=NC4CS(=O)(=O)CC4S3)cc2)cc1 (stereo unspecified)
- cell number change: 29.5%
- AC50 [1]: 20.6 µM [rising, partial curve]

SMILES: CCOc1cc(/C=N/NC(=O)OC)ccc1OCCSc1ccc(Cl)cc1
- AC50 [1]: 1.84 µM [rising, partial curve, poor fit]

SMILES: O=C(COC(=O)c1ccccc1NCCO)Nc1cc(C(F)(F)F)ccc1N1CCOCC1
- cell number change: -11.9%
- AC50 [1]: 15.8 µM [falling, single point]

SMILES: Cc1nc2ccc(Cl)cn2c1C(=O)NN
- cell number change: 4.99%
- AC50 [1]: 3.66 µM [rising, partial curve, poor fit]

SMILES: CCOc1cc(C(=S)N2CCOCC2)ccc1OC(=O)c1ccc(C)cc1
- cell number change: -52.5%
- AC50 [2]: 14.6 µM [falling, partial curve]

SMILES: COc1ccc(C(=O)CSc2nnc(Cn3nnc4ccccc43)n2C)cc1
- cell number change: 71.1%
- AC50 [2]: 20.6 µM [rising, single point]

SMILES: Cc1cc2cc(C#N)c(SCC(=O)Nc3nonc3C)nc2cc1C
- cell number change: 181%
- AC50 [2]: 18.4 µM [rising, partial curve]

SMILES: CCN1CCN(c2cc(C)c3cc(NC(=S)N4CCN(c5ccccc5F)CC4)ccc3n2)CC1
- cell number change: 30.3%

SMILES: N#CCCN(Cc1ccccc1)C(=S)Nc1ccccc1
- cell number change: -34%
- AC50 [2]: 16.4 µM [falling, single point]
- AC50 [1]: 0.461 µM [rising, partial curve, poor fit]

SMILES: Cc1cc(C(=O)N/N=C/c2cc([N+](=O)[O-])ccc2O)c2ccccc2n1
- cell number change: -2.9%
- AC50 [1]: 0.13 µM [rising, full curve, poor fit]

SMILES: O=C(CSc1nc2cc(Cl)ccc2c(=O)n1Cc1ccco1)Nc1ccc(S(=O)(=O)N2CCOCC2)cc1
- cell number change: -9.36%
- AC50 [1]: 0.517 µM [falling, single point]

SMILES: COc1cc(SC)ccc1C(=O)N(C)CC(=O)Nc1cccc2ccccc12
- cell number change: 1.82%
- AC50 [1]: 0.00461 µM [rising, full curve, poor fit]

SMILES: O=C(CCn1c(=O)c2ccccc2n(Cc2ccccc2)c1=O)NCc1ccc2c(c1)OCO2
- AC50 [2]: 2.31 µM [rising, partial curve]
- AC50 [1]: 2.59 µM [rising, partial curve]

SMILES: CCCN1CCN(CCCNC(=O)CN2C(=O)COc3ccccc32)CC1
- cell number change: -160%
- AC50 [1]: 29.1 µM [falling, single point]

SMILES: CC1CCc2c(sc(/N=C/N(C)C)c2C#N)C1 (stereo unspecified)
- cell number change: 44.5%
- AC50 [2]: 23.1 µM [rising, single point]
- AC50 [1]: 16.4 µM [rising, partial curve]

SMILES: CNC(=O)CCn1nc(-c2ccc(C)cc2)c2ccccc2c1=O
- cell number change: 5.56%
- AC50 [1]: 3.66 µM [falling, partial curve]

SMILES: CCOC(=O)C(C)n1nc(C)c2sc3ccccc3c2c1=O (stereo unspecified)
- cell number change: -30.9%
- AC50 [2]: 1.84 µM [falling, full curve, poor fit]
- AC50 [1]: 1.84 µM [falling, full curve, poor fit]

SMILES: COc1ccc(CN2CCNC(=O)C2CC(=O)N(C)CC2CCOCC2)c(F)c1 (stereo unspecified)
- cell number change: 5.42%
- AC50 [1]: 29.1 µM [rising, single point]

SMILES: CCCNC(=O)Cn1cnc2sc(C(=O)Nc3ccc4c(c3)OCO4)c(C)c2c1=O
- cell number change: 36.2%
- AC50 [2]: 20.6 µM [rising, single point]

— PubChem BioAssay AID2685 (National Center for Advancing Translational Sciences (NCATS), 2010)
